Measured values taken from publication PMC4792956.
No constants are given. Whether binding was seen depends on the method and setting. Binding seen in cells or lysates may run through a third protein.

Chains of the proteins cited; added tags and fusions are not shown. Lines headed by an entry give the natural chain unless they say otherwise; changes in a name come on top.
UniProt Q13402: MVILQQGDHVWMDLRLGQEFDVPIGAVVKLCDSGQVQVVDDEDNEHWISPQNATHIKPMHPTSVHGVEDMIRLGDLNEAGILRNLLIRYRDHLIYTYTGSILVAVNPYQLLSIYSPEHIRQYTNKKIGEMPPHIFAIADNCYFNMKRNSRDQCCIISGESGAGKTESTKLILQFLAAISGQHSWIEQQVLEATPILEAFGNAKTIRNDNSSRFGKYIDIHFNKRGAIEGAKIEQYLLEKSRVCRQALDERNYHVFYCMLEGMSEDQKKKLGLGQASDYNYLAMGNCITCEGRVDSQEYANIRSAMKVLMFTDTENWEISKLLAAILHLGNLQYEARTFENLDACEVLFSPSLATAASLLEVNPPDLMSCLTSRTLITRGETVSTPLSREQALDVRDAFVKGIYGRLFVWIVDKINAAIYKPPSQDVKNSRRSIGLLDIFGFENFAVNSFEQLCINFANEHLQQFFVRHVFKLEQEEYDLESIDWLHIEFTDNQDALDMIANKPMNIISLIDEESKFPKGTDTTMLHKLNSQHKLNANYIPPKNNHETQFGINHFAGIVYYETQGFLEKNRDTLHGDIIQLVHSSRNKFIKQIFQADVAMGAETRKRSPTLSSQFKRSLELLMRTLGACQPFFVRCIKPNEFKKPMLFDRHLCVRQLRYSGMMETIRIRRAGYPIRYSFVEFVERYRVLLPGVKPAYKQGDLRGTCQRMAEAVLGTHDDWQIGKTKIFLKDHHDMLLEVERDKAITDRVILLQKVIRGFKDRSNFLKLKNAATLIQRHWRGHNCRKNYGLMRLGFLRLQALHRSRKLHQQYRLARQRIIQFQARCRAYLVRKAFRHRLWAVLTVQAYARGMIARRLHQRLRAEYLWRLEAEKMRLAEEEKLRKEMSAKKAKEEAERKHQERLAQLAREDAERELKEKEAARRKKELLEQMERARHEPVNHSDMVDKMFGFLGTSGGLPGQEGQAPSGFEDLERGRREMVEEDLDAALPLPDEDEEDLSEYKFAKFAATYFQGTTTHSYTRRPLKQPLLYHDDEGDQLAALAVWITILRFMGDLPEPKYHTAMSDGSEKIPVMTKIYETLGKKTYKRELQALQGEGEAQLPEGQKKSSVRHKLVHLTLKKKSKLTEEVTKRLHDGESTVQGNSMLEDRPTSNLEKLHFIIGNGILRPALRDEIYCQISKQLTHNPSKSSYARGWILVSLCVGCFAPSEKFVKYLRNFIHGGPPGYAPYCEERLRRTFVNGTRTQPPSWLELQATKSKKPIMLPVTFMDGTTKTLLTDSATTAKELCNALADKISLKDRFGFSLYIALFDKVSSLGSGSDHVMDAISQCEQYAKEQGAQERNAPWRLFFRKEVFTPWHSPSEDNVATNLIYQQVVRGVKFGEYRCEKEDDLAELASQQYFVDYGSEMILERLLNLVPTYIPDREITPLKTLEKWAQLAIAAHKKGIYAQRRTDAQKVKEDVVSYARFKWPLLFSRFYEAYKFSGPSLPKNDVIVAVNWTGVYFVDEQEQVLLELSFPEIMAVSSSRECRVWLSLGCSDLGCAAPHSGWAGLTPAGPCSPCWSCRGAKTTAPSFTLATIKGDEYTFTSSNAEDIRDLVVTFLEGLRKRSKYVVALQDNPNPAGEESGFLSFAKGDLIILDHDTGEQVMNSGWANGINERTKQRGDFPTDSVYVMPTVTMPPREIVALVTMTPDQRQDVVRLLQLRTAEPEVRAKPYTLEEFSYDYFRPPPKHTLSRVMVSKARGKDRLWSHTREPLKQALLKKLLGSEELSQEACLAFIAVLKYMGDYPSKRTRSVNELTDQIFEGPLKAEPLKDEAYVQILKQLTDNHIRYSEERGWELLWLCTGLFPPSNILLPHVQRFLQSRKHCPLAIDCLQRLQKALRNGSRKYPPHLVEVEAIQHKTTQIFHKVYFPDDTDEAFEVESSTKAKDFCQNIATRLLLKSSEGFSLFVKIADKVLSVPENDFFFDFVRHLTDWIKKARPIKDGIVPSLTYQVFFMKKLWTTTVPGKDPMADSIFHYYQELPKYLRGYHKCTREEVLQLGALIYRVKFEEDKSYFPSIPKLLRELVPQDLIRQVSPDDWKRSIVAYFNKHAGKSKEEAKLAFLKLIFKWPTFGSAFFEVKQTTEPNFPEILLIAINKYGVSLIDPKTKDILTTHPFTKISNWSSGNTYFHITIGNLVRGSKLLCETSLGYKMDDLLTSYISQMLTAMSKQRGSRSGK
UniProt P55211: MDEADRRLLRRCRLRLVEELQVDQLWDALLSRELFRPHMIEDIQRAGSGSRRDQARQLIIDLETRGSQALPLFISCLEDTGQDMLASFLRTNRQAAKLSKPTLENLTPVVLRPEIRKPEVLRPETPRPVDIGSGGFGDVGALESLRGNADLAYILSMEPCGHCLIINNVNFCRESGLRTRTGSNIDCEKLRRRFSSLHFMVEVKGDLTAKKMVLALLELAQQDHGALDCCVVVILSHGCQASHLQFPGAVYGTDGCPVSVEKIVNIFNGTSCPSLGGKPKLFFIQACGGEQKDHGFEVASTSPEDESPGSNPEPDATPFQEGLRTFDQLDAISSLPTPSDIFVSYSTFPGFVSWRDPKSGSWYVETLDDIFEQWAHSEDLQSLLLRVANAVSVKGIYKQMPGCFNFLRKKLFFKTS

Molecular target: MYC-MYO7A (UniProt Q13402)
Test: co-IP; co-expressed in 293T cells; immunoprecipitation (α-MYC in Fig. 6a) followed by immunoblotting; lysis in 50 mM Tris pH 7.5, 150 mM NaCl, 0.1% Triton X-100, 10% glycerol, 1 mM EDTA

binding: no binding
Substance: V5-CASP9 (from UniProt P55211) (enzyme)
